Results deposited as PubChem BioAssay AID1259405 (NCATS, 2018).

- Assay: 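Silenced genes that increase secreted GFP made by CHO cells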 (primary screen)
- Cell system: Chinese hamster CHO-K1 ovary cells with stable secreted eGFP expression
- Reagent: single siRNA against mouse genes, 0.8 pmol siRNA per well (2 µl of 400 nM stock)
- Time to read-out: 3 days
- Read-out: 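Per-well intracellular GFP measured by laser scanning cytometry, plus viability from ATP luminescence, each relative to plate median of non-targeting control wells, in %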
- Direction: GFP, % of control: higher = more GFP per well, higher productivity; viability (ATP), % of control: higher = more viable cells (more ATP)
- Hit rule: 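Called active when intracellular GFP, relative to negative control, is at or above 120%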
Here is one part, drawn at random, of about 50,000 reagents tested. Over the whole deposit, about 4,000 (8%) got an active call. 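Mouse siRNA library applied to hamster cells; one well for each siRNA.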 Entries without a mark were called inactive. Reagents against one gene are numbered here.

Fkbp9 (GeneID 27055) #1 → GFP, % of control: 54.2; viability (ATP), % of control: 66.1
Fkbp9 (GeneID 27055) #2 → GFP, % of control: 151 (active); viability (ATP), % of control: 94.9
Fkbp9 (GeneID 27055) #3 → GFP, % of control: 79.3; viability (ATP), % of control: 63.9
Mageh1 (GeneID 75625) #1 → GFP, % of control: 64.4; viability (ATP), % of control: 55.7
Mageh1 (GeneID 75625) #2 → GFP, % of control: 97.4; viability (ATP), % of control: 82.4
Mageh1 (GeneID 75625) #3 → GFP, % of control: 76.2; viability (ATP), % of control: 61.2
Smchd1 (GeneID 74355) #1 → GFP, % of control: 62.9; viability (ATP), % of control: 66.4
Smchd1 (GeneID 74355) #2 → GFP, % of control: 96.2; viability (ATP), % of control: 74.5
Smchd1 (GeneID 74355) #3 → GFP, % of control: 110; viability (ATP), % of control: 99.1
Polr1f (GeneID 28071) #1 → GFP, % of control: 62; viability (ATP), % of control: 84.6
Polr1f (GeneID 28071) #2 → GFP, % of control: 88.8; viability (ATP), % of control: 90.2
Polr1f (GeneID 28071) #3 → GFP, % of control: 92.2; viability (ATP), % of control: 105
F8a (GeneID 14070) #1 → GFP, % of control: 77.3; viability (ATP), % of control: 97.4
F8a (GeneID 14070) #2 → GFP, % of control: 115; viability (ATP), % of control: 111
F8a (GeneID 14070) #3 → GFP, % of control: 92.3; viability (ATP), % of control: 68.1
Mcpt8 (GeneID 17231) #1 → GFP, % of control: 88.8; viability (ATP), % of control: 70.6
Mcpt8 (GeneID 17231) #2 → GFP, % of control: 44; viability (ATP), % of control: 46.7
Mcpt8 (GeneID 17231) #3 → GFP, % of control: 85.5; viability (ATP), % of control: 98.5
Galntl5 (GeneID 67909) #1 → GFP, % of control: 68.3; viability (ATP), % of control: 84.6
Galntl5 (GeneID 67909) #2 → GFP, % of control: 93.5; viability (ATP), % of control: 107
Galntl5 (GeneID 67909) #3 → GFP, % of control: 121 (active); viability (ATP), % of control: 119
Tlr9 (GeneID 81897) #1 → GFP, % of control: 58.3; viability (ATP), % of control: 51.5
Tlr9 (GeneID 81897) #2 → GFP, % of control: 94.5; viability (ATP), % of control: 48.4
Tlr9 (GeneID 81897) #3 → GFP, % of control: 73.6; viability (ATP), % of control: 97.2
Ppib (GeneID 19035) #1 → GFP, % of control: 91.4; viability (ATP), % of control: 86
Ppib (GeneID 19035) #2 → GFP, % of control: 73.8; viability (ATP), % of control: 71.4
Ppib (GeneID 19035) #3 → GFP, % of control: 19.4; viability (ATP), % of control: 28.4
Or1j12 (GeneID 258953) #1 → GFP, % of control: 68.5; viability (ATP), % of control: 65.8
Or1j12 (GeneID 258953) #2 → GFP, % of control: 108; viability (ATP), % of control: 49.2
Or1j12 (GeneID 258953) #3 → GFP, % of control: 42.5; viability (ATP), % of control: 66.6
Or4f54 (GeneID 258389) #1 → GFP, % of control: 30.8; viability (ATP), % of control: 84.5
Or4f54 (GeneID 258389) #2 → GFP, % of control: 36.7; viability (ATP), % of control: 50.1
Or4f54 (GeneID 258389) #3 → GFP, % of control: 77; viability (ATP), % of control: 77.6
Nup37 (GeneID 69736) #1 → GFP, % of control: 71.4; viability (ATP), % of control: 47.4
Nup37 (GeneID 69736) #2 → GFP, % of control: 53.5; viability (ATP), % of control: 71.5
Nup37 (GeneID 69736) #3 → GFP, % of control: 65.6; viability (ATP), % of control: 56.2
Tlr8 (GeneID 170744) #1 → GFP, % of control: 98.3; viability (ATP), % of control: 80.9
Tlr8 (GeneID 170744) #2 → GFP, % of control: 69.9; viability (ATP), % of control: 58.7
Tlr8 (GeneID 170744) #3 → GFP, % of control: 63.4; viability (ATP), % of control: 63.4
Cep128 (GeneID 75216) #1 → GFP, % of control: 73; viability (ATP), % of control: 81.3
Cep128 (GeneID 75216) #2 → GFP, % of control: 107; viability (ATP), % of control: 56.4
Cep128 (GeneID 75216) #3 → GFP, % of control: 51.5; viability (ATP), % of control: 77.2
Ggt6 (GeneID 71522) #1 → GFP, % of control: 87.6; viability (ATP), % of control: 116
Ggt6 (GeneID 71522) #2 → GFP, % of control: 44.3; viability (ATP), % of control: 52.3
Ggt6 (GeneID 71522) #3 → GFP, % of control: 52.2; viability (ATP), % of control: 87.7
Cep19 (GeneID 66994) #1 → GFP, % of control: 83.5; viability (ATP), % of control: 66.9
Cep19 (GeneID 66994) #2 → GFP, % of control: 61.7; viability (ATP), % of control: 69.6
Cep19 (GeneID 66994) #3 → GFP, % of control: 104; viability (ATP), % of control: 77.6
Vmn1r50 (GeneID 113852) #1 → GFP, % of control: 81.7; viability (ATP), % of control: 67.3
Vmn1r50 (GeneID 113852) #2 → GFP, % of control: 88.8; viability (ATP), % of control: 89.8
Vmn1r50 (GeneID 113852) #3 → GFP, % of control: 51.9; viability (ATP), % of control: 67.6
P2rx2 (GeneID 231602) #1 → GFP, % of control: 114; viability (ATP), % of control: 72.8
P2rx2 (GeneID 231602) #2 → GFP, % of control: 121 (active); viability (ATP), % of control: 105
P2rx2 (GeneID 231602) #3 → GFP, % of control: 50.5; viability (ATP), % of control: 45.3

Ordered by “GFP, % of control” (low to high): 9 of the entries above.
Mcpt8 (GeneID 17231) #2 → GFP, % of control: 44; viability (ATP), % of control: 46.7
Tlr9 (GeneID 81897) #1 → GFP, % of control: 58.3; viability (ATP), % of control: 51.5
Galntl5 (GeneID 67909) #1 → GFP, % of control: 68.3; viability (ATP), % of control: 84.6
Mcpt8 (GeneID 17231) #3 → GFP, % of control: 85.5; viability (ATP), % of control: 98.5
Mcpt8 (GeneID 17231) #1 → GFP, % of control: 88.8; viability (ATP), % of control: 70.6
F8a (GeneID 14070) #3 → GFP, % of control: 92.3; viability (ATP), % of control: 68.1
Galntl5 (GeneID 67909) #2 → GFP, % of control: 93.5; viability (ATP), % of control: 107
F8a (GeneID 14070) #2 → GFP, % of control: 115; viability (ATP), % of control: 111
Galntl5 (GeneID 67909) #3 → GFP, % of control: 121 (active); viability (ATP), % of control: 119
